This note sets out measurements from patent US20130115133A1, “INACTIVATION OF MICROORGANISMS WITH MULTIDRUG RESISTANCE INHIBITORS AND PHENOTHIAZINIUMS” (priority 2004, published 2013).

Each structure is given as a SMILES string.

The data set has as its system S. aureus NorA-, wild type, and NorA+. Kind of data set: Uptake studies (photosensitizer molecules per cell by extraction and fluorescence). Particulars: 10 μM. Type of data set: cell-based, Staphylococcus aureus.

Take `CN(C)c1ccc2nc3ccc(=[N+](C)C)cc-3sc2c1` [MB, methylene blue]: the uptake by setting is: (NorA+) 0.021±0.003 ×10^9 molecules/cell; (NorA-) 1.22±0.22 ×10^9 molecules/cell; (wild-type) 0.06±0.01 ×10^9 molecules/cell.
The corresponding values for `Cc1cc2nc3ccc(N(C)C)cc3[s+]c2cc1N.[Cl-]` [TBO, Toluidine blue O] are 0.114±0.016 ×10^9 molecules/cell, 1.34±0.32 ×10^9 molecules/cell and 0.16±0.02 ×10^9 molecules/cell.
